Measured values reported in PMC9892639.
No constants are given. Whether binding was seen depends on the method and setting. In cells and extracts the contact can be indirect. Some binding calls cover weakened binding; strength is not graded here.

Chains of the proteins cited; added tags and fusions are not shown.
UniProt P51150: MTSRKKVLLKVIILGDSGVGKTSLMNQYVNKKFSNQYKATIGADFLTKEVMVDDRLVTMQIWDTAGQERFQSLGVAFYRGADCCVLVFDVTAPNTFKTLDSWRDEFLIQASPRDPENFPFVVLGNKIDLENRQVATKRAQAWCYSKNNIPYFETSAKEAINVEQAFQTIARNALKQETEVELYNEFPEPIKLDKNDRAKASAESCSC
UniProt Q8BGM7: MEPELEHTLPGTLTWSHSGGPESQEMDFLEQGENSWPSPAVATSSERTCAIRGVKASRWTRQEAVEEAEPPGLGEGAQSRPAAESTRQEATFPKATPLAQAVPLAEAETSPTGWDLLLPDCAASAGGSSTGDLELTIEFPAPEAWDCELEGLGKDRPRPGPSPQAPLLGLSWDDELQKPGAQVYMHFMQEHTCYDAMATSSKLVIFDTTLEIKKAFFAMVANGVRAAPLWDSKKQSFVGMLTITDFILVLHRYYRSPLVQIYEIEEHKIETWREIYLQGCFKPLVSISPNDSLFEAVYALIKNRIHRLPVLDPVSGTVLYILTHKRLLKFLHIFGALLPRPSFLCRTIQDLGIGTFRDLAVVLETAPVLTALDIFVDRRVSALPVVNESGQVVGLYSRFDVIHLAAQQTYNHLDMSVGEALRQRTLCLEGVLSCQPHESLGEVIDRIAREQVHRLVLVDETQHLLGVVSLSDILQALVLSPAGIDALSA

Columns and labels:
[1] = molecular target: T1, Vam6 (also named Vps39) (mouse (endogenous in iNKT cells)) (UniProt Q8R5L3); assay: co-IP; expanded iNKT cells lysed in NP-40 buffer with protease inhibitors; antibody (1 μg/mL) on Dynabeads protein G, lysate incubated at 4 °C overnight; immunoblot
T1 sequence: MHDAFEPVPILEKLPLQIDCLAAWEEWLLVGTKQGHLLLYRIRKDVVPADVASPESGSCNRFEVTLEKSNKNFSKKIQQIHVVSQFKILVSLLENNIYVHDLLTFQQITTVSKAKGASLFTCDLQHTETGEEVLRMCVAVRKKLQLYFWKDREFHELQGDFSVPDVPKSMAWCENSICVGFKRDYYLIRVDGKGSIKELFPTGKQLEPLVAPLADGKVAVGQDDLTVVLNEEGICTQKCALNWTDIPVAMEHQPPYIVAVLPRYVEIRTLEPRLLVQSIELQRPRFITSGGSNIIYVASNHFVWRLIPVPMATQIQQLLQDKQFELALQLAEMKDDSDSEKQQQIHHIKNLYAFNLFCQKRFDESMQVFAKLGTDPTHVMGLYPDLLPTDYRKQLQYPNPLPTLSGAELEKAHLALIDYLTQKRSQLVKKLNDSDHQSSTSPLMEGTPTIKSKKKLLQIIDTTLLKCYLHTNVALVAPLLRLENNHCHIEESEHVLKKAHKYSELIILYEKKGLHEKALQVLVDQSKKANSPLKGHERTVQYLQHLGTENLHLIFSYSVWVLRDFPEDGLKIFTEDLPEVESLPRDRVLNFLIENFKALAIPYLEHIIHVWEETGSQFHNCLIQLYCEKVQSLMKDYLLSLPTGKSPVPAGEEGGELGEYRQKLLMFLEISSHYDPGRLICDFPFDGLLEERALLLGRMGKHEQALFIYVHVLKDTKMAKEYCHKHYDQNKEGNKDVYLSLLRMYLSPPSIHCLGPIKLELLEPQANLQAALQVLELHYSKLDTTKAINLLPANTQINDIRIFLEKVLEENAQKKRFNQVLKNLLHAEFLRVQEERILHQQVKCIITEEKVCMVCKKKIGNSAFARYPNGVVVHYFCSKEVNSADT

mCherry-Vam6 = molecular target: T2, mCherry-Vam6 (UniProt Q8R5L3); assay: co-IP; mCherry-Vam6 wild type and truncated mutants (ΔCT, ΔCLH, ΔCNH) restored in Vam6 knockdown NIH-3T3 cells; NP-40 lysate, antibody-coated Dynabeads protein G, 4 °C overnight; immunoblot (Supplementary Figure 3B)
T2 sequence: T1 sequence

[2] = molecular target: Rab7a (mouse (endogenous in iNKT cells)) (UniProt P51150); assay: proximity ligation; in situ PLA (Duolink) in fixed, permeabilised CD1d-PBS57 tetramer+ iNKT cells stimulated with anti-CD3 plus anti-CD28 or CD1d-PBS57 tetramer for 4 hours; puncta counted by confocal microscopy or imaging flow cytometry; cells from Vam6+/+, Vam6+/-, Vdac1+/+, Vdac1+/-, Vdac1-/- mice, with or without AICAR
[3] = molecular target: T1, Vam6 (also named Vps39) (mouse (endogenous in iNKT cells)); assay: as above

Measured: binding

AMPKγ3 (from UniProt Q8BGM7 1-489)
binds: all assays above

Rab7a (from UniProt P51150 1-207)
binds: [1] | mCherry-Vam6 | [3]
